Percent effect of library compounds

Sequences of proteins named here, by UniProt entry; tags and fusion partners are left off. Residues count along the entry.
UniProt Q8IDJ8, 1-583: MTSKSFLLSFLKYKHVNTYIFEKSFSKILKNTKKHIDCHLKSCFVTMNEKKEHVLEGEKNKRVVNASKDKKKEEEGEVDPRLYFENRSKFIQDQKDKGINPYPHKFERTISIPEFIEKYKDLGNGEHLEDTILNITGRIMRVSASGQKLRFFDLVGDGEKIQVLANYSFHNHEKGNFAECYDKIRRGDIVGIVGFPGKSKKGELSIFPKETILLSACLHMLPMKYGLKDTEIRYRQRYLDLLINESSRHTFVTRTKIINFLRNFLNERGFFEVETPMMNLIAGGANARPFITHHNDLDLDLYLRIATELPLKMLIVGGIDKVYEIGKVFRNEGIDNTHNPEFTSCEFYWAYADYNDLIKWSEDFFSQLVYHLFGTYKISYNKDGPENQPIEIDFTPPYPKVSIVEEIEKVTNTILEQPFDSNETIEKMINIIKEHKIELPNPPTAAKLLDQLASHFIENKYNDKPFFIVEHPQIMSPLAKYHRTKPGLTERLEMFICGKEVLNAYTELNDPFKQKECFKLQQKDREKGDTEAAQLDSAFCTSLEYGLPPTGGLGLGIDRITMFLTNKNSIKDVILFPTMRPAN

Source: ChEMBL document CHEMBL3988442, “University of Dundee, Small-Polar-MMV Screening Library” (2021).

Toxoplasma: 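Assay of Toxoplasma gondii numbers, read through their beta-galactosidase reporter with a colour substrate. Concentration: 10 µM. Higher reads as fewer parasites (inferred from which compounds were picked for retests). Of about 67,000 compounds tested this way, about 260 (0.38%) reached 50% or more in at least one test.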
T. brucei: 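Whole-parasite assay of Trypanosoma brucei over 72 hours; the read-out is not stated. Concentration: 30 µM. Direction is inferred from retests: higher values go with stronger inhibition. Values scatter widely below zero; nearly all retest evidence comes from the higher of the two concentrations used. Size under these conditions: about 64,000 compounds, about 940 of them at 50% or above in at least one test.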
Leishmania in macrophages: 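Cell assay of Leishmania donovani living inside macrophages; the read-out is not stated. Tested at 30 µM. The record gives no direction; compounds that gave an IC50 in retests scored well above the rest, so higher reads as stronger inhibition. Of about 69,000 compounds tested this way, about 1,000 (1.5%) reached 50% or more in at least one test.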
PfKRS1: 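Enzyme assay of the cytosolic lysyl-tRNA synthetase in 384-well plates, read by luminescence. Target: Lysine-tRNA ligase, Plasmodium falciparum 3D7 (UniProt Q8IDJ8). Concentration: 30 µM. Direction is inferred from only a few compounds that gave an IC50; most scored high, so higher reads as stronger inhibition. About 69,000 compounds were tested under these conditions; 0.071% (about 49) showed 50% or more at least once.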

The filed quantity is “Percent Effect” (%).
The controls that fix the scale are not given in the record; negative values are as filed.
This is an unselected part of the compounds tested.

With CNc1nc(CNC(=O)Nc2ccccc2C(F)(F)F)cs1 the screen gave Toxoplasma: -2.064%; T. brucei: 6.659%; Leishmania in macrophages: 16.12%; PfKRS1: 0.8797%. Cc1ccc(C(=O)NS(C)(=O)=O)cc1S(C)(=O)=O gave Toxoplasma: 0.2351%; T. brucei: 7.017%; Leishmania in macrophages: 7.847%; PfKRS1: 3.829%. Result for CC(C)(CO)CCCNC(=O)NC1(c2cccc(F)c2)CC1 was Toxoplasma: 6.83%; T. brucei: -7.898%; Leishmania in macrophages: 23.03%; PfKRS1: 3.134%. COc1cccc(CN(C)C(C)c2ccco2)c1OCCn1ccnc1 (centres undefined) read Toxoplasma: 3.558%; T. brucei: 6.051%; Leishmania in macrophages: 23.12%; PfKRS1: -3.131%. Result for CSc1ccccc1CCC1CCS(=O)(=O)C1 (centres undefined) was Toxoplasma: 0.9363%; T. brucei: -41.32%; Leishmania in macrophages: 13.71%; PfKRS1: 1.82%.

With O=C(NCc1cccnc1N1CCCCC1)c1cccs1 the screen gave Toxoplasma: 1.049%; T. brucei: -4.171%; Leishmania in macrophages: -30.35%; PfKRS1: 3.937%. CCCC(C)NC(=O)CCN1C(=O)CCc2cc(F)ccc21 (centres undefined) gave Toxoplasma: 12.55%; T. brucei: -9.457%; Leishmania in macrophages: -0.7642%; PfKRS1: 2.413%. With Cc1cccc(-c2nccn2-c2cccc(CC(=O)O)c2)n1 the screen gave Toxoplasma: -5.474%; T. brucei: -29.94%; Leishmania in macrophages: 20.12%; PfKRS1: 7.897%. Result for CC(C)c1cnc(N2C[C@H](CO)C[C@H](CN3CCOCC3)C2)nc1 was Toxoplasma: 7.852%; T. brucei: -17.32%; Leishmania in macrophages: 26.53%; PfKRS1: 4.049%. Result for Cn1ccnc1CN1CCN(c2ccc(C#N)cc2F)CC1 was Toxoplasma: 2.262%; T. brucei: 14.09%; Leishmania in macrophages: 27.39%; PfKRS1: -0.2491%.

Result for Cn1cc(CN2CCOC3(CCCN(c4cccc(F)c4)C3)C2)cn1 (centres undefined) was PfKRS1: 2.292%. COc1ccc(S(=O)(=O)NC(=O)COc2ccc3c(c2)CCC3)cc1 read Toxoplasma: 14.95%; T. brucei: -22.43%; Leishmania in macrophages: -8.976%; PfKRS1: -2.028%. O=C1OCCN1Cc1ccc(C(F)(F)F)cc1F read Toxoplasma: 10.28%; T. brucei: -4.043%; Leishmania in macrophages: 25.39%; PfKRS1: 3.923%. Cc1ccc(-c2nnc([C@H]3CCN(C4CCC4)C3)o2)cc1 gave Toxoplasma: -7.196%; T. brucei: -43.36%; Leishmania in macrophages: -6.698%; PfKRS1: -0.7062%. COCCC1(CO)CCCN(Cc2ccc(F)c(C)c2)C1 (centres undefined) read Toxoplasma: -3.137%; T. brucei: 12.51%; Leishmania in macrophages: 37.27%; PfKRS1: 7.102%.

For Cc1nn(C)cc1CN1CCCn2nc(CNC(=O)C3CCC3)cc2C1 the result was Toxoplasma: -7.299%; T. brucei: -11.02%; Leishmania in macrophages: -18.79%; PfKRS1: 3.272%. For Cc1nc(-c2ccccc2)cc(C2CCNCC2)n1 the result was PfKRS1: -0.1717%. With Cc1nn(-c2ccccc2Cl)c(C)c1CCC(=O)O the screen gave Toxoplasma: -18.69%; T. brucei: -14.8%; Leishmania in macrophages: -26.02%; PfKRS1: 2.854%. CC[C@@H]1N(CC2CCOCC2)CCC[C@]12CCC(=O)N2 read PfKRS1: 14.85%. With O=C(CC1CN(Cc2ccccc2)CCO1)NC1CCSCC1 (centres undefined) the screen gave Toxoplasma: 18.44%; T. brucei: -8.581%; Leishmania in macrophages: 18.94%; PfKRS1: 6.582%.

O=c1[nH]nc2c(N3CCC(NC4CCOCC4)CC3)nccn12 read Toxoplasma: 10.92%; Leishmania in macrophages: 11.33%; PfKRS1: 5.229%. COC(=O)c1ccc(OC)c(Cn2cc(Br)cn2)c1 read Toxoplasma: 3.313%; T. brucei: -12.04%; Leishmania in macrophages: -1.661%; PfKRS1: 0.787%. Result for O=S1(=O)CCCN1Cc1coc(-c2cccs2)n1 was Toxoplasma: 6.804%; T. brucei: -5.557%; Leishmania in macrophages: 14.14%; PfKRS1: 3.647%. With O=C(C1CCCN(Cc2ccccc2)C1)N1CCc2sccc2C1 (centres undefined) the screen gave Toxoplasma: -4.005%; T. brucei: -45.02%; Leishmania in macrophages: -42%; PfKRS1: -1.652%. O=C(O)C(F)(F)F.O=C(O)C(F)(F)F.O=C(c1ccnnc1)N1CCN(Cc2cccnc2)c2ncccc2C1 gave Toxoplasma: -21.49%; T. brucei: -9.164%; Leishmania in macrophages: -1.897%.

With CN(Cc1cnc(N)nc1)C(=O)c1coc(COc2cccc(F)c2)n1 the screen gave Toxoplasma: -6.038%; T. brucei: 14.25%; Leishmania in macrophages: 21.63%; PfKRS1: -0.01177%. With Cc1nccn1-c1nccnc1C1CCN(Cc2ccc(F)cc2)CC1 the screen gave Toxoplasma: -3.605%; T. brucei: 43.08%; Leishmania in macrophages: 4.173%; PfKRS1: 0.1072%. With Cc1nn(C)c(C)c1C1CCCN1Cc1cccc(C(N)=O)c1 (centres undefined) the screen gave T. brucei: -28.55%; Leishmania in macrophages: -1.052%; PfKRS1: 3.306%. For O=C(O)CC(NC(=O)c1ccccc1OC(F)F)c1cccs1 (centres undefined) the result was Toxoplasma: 8.358%; T. brucei: 6.219%; Leishmania in macrophages: 20.82%; PfKRS1: 0.4642%. Cn1ccnc1C(O)(CCNCc1ccco1)C(F)(F)F (centres undefined) gave Toxoplasma: 5.871%; T. brucei: -36.66%; Leishmania in macrophages: -18.4%; PfKRS1: 0.1453%.

For COCCS(=O)(=O)c1ncc(CN(C)CC(C)C)n1Cc1ccccc1 the result was Toxoplasma: -2.441%; T. brucei: -17.76%; Leishmania in macrophages: -7.335%; PfKRS1: 3.317%.